Measurements as given in US20200330514A1.
No constants are given. Whether binding was seen depends on the method and setting. Some entries that bind do so weakly or less than the wild type.

Amino acid sequences for entries named in this document (tags omitted). A change or cut given only in a name is not applied to a line headed by its entry. Residues count along the entry.
UniProt P08575, residues 26-1306: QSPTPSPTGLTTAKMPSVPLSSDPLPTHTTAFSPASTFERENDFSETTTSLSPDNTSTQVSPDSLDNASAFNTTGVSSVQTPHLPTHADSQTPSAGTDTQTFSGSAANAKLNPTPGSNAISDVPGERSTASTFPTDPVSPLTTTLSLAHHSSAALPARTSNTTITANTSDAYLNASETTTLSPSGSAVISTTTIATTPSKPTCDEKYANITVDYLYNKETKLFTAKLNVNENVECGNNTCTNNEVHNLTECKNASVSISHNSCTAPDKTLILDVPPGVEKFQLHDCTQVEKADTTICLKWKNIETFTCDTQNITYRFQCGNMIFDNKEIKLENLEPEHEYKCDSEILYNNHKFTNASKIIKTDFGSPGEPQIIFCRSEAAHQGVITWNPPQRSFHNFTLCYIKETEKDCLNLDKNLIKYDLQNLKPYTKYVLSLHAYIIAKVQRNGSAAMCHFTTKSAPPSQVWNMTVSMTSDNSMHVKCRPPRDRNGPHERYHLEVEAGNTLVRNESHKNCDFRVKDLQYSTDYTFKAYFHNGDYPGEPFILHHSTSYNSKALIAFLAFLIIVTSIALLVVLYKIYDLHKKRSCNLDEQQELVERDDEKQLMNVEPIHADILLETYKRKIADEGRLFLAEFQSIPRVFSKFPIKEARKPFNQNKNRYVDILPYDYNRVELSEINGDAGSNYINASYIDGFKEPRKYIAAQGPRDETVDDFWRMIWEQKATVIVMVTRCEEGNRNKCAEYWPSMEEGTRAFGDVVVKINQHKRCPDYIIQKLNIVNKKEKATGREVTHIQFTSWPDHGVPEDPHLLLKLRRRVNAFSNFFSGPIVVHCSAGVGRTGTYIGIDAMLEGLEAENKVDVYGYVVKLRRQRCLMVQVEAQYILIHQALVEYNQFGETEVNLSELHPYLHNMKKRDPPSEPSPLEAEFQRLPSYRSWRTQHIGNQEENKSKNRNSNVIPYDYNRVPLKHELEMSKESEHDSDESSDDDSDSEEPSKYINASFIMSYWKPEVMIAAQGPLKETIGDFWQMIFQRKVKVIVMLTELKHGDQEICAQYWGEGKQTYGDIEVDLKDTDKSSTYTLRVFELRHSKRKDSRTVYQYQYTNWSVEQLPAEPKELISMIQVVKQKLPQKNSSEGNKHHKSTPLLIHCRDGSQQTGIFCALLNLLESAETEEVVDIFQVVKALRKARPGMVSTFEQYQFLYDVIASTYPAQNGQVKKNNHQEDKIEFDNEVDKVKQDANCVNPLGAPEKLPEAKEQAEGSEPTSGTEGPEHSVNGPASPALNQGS
UniProt Q13261: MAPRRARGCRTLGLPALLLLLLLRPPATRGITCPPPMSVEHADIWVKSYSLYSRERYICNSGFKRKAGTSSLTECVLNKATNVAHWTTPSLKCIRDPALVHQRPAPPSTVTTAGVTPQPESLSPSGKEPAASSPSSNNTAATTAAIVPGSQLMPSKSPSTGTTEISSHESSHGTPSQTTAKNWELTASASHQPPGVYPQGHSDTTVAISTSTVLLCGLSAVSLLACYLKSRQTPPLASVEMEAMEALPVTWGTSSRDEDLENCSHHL

Legend:
[1] = target: human CD45 receptor on the surface of human T cells (human) (UniProt P08575); experiment: pulse assay on human T cells, surface staining by flow cytometry (FIG. 18C)
[2] = target: human CD45 receptor on the surface of human T cells (human) (UniProt P08575); experiment: pulse incubation at 500 nM, anti-IL-15 staining by flow cytometry (FIG. 26)
[3] = target: human CD45 receptor on the surface of human T cells (human) (UniProt P08575); experiment: pulse incubation of human CD3 T cells, anti-IL-15 staining by flow cytometry (FIG. 25)
[4] = target: human CD45 receptor on the surface of human T cells (human) (UniProt P08575); experiment: five-fold serial dilutions on activated human CD3 T cells, anti-IL-15 staining by flow cytometry (FIG. 31B)

binding [1]	binding [2]	binding [3]	binding [4]	Substance
binds	–	–	–	chBC8Fab IFM comprising IL-15-D61N (from UniProt Q13261 31-95)
binds	–	–	–	chBC8Fab IFM comprising IL-15-Q108N (from UniProt Q13261 31-95)
–	binds	binds	binds	h9.4Fab-IL15/sushi (from UniProt Q13261 31-95)
